According to article doi:10.1101/2023.07.25.550414:
No constants are given. Whether binding was seen depends on the method and setting. For some assays here: Binding seen in cells or lysates may run through a third protein. Some results given as binding are weak or reduced against the parent protein; the word gives no strength. Sequences can lack the tags named with a protein.

T1: HA-epitope tagged SIC (Arabidopsis thaliana) (UniProt Q9SB47)
T1 sequence: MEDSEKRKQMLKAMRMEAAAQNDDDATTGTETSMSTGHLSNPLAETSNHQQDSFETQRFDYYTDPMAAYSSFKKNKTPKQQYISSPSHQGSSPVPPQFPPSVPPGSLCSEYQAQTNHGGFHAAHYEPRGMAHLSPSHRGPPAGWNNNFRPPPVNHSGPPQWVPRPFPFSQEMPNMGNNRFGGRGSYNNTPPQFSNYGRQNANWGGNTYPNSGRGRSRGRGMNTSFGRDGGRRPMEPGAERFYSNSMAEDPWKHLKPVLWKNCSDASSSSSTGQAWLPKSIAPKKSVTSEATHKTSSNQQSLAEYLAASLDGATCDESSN

T2: GAL4-DNA binding domain-DBR1 fusion (RNA DEBRANCHING ENZYME 1) (Arabidopsis thaliana) (UniProt Q94K01)
T2 sequence: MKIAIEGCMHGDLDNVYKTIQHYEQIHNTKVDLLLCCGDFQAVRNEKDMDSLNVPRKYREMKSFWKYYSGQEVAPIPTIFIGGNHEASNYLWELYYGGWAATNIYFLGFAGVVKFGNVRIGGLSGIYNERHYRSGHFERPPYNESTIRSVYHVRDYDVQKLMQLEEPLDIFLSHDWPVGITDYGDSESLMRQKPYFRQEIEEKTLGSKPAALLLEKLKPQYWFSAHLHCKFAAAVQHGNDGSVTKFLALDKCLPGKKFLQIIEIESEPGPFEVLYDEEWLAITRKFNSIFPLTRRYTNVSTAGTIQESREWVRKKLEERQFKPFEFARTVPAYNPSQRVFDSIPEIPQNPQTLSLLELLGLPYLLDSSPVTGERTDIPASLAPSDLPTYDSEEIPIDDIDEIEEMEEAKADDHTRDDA


Assays:
[1] = target: T1, HA-epitope tagged SIC (Arabidopsis thaliana); experiment: co-IP
[2] = target: T2, GAL4-DNA binding domain-DBR1 fusion (RNA DEBRANCHING ENZYME 1) (Arabidopsis thaliana); experiment: two-hybrid

binding [1]	binding [2]	Binder
binds		cMyc-epitope tagged DBR1 (enzyme, UniProt Q94K01 1-418) MKIAIEGCMHGDLDNVYKTIQHYEQIHNTKVDLLLCCGDFQAVRNEKDMDSLNVPRKYREMKSFWKYYSGQEVAPIPTIFIGGNHEASNYLWELYYGGWAATNIYFLGFAGVVKFGNVRIGGLSGIYNERHYRSGHFERPPYNESTIRSVYHVRDYDVQKLMQLEEPLDIFLSHDWPVGITDYGDSESLMRQKPYFRQEIEEKTLGSKPAALLLEKLKPQYWFSAHLHCKFAAAVQHGNDGSVTKFLALDKCLPGKKFLQIIEIESEPGPFEVLYDEEWLAITRKFNSIFPLTRRYTNVSTAGTIQESREWVRKKLEERQFKPFEFARTVPAYNPSQRVFDSIPEIPQNPQTLSLLELLGLPYLLDSSPVTGERTDIPASLAPSDLPTYDSEEIPIDDIDEIEEMEEAKADDHTRDDA
	binds	GAL4 Activation Domain-SIC fusion (SICKLE) (protein, UniProt Q9SB47 1-319) MEDSEKRKQMLKAMRMEAAAQNDDDATTGTETSMSTGHLSNPLAETSNHQQDSFETQRFDYYTDPMAAYSSFKKNKTPKQQYISSPSHQGSSPVPPQFPPSVPPGSLCSEYQAQTNHGGFHAAHYEPRGMAHLSPSHRGPPAGWNNNFRPPPVNHSGPPQWVPRPFPFSQEMPNMGNNRFGGRGSYNNTPPQFSNYGRQNANWGGNTYPNSGRGRSRGRGMNTSFGRDGGRRPMEPGAERFYSNSMAEDPWKHLKPVLWKNCSDASSSSSTGQAWLPKSIAPKKSVTSEATHKTSSNQQSLAEYLAASLDGATCDESSN
